Measurements reported in paper doi:10.64898/2025.12.11.693714.
No constants are given. Whether binding was seen depends on the method and setting. For some assays here: In cells and extracts the contact can be indirect. Some entries that bind do so weakly or less than the wild type. For some assays here: Tags and fused reporters may be left off the sequences shown. Values belong to the molecule of their own block, whether it stands above or below them.

Sequences of proteins named here, by UniProt entry; tags and fusion partners are left off. A change or cut given only in a name is not applied to a line headed by its entry.
UniProt O14744: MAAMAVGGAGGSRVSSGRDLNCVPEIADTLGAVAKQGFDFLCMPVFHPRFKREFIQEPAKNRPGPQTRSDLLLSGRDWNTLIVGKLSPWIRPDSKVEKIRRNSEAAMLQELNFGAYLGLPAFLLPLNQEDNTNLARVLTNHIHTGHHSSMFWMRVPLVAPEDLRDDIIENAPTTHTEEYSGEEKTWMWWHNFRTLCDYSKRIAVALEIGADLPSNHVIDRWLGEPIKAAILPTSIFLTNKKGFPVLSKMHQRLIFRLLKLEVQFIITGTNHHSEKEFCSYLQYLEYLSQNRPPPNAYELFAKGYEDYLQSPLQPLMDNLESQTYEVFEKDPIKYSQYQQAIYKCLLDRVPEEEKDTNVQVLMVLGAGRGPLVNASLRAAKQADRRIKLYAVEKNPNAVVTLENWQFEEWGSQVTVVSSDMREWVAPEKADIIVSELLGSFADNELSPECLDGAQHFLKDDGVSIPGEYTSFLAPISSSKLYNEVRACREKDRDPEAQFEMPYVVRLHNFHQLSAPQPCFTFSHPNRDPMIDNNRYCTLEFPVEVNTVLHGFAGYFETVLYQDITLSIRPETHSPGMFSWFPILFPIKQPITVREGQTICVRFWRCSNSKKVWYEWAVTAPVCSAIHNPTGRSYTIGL
UniProt Q96GD4: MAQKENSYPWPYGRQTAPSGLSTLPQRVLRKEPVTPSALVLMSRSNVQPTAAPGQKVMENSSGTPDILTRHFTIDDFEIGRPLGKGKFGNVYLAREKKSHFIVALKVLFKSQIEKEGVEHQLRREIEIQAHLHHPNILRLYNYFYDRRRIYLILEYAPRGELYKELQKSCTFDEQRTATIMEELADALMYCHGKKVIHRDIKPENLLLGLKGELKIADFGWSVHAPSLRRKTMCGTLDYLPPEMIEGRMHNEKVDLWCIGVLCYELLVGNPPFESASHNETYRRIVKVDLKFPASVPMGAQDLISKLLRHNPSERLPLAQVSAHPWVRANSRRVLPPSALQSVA
UniProt P30281: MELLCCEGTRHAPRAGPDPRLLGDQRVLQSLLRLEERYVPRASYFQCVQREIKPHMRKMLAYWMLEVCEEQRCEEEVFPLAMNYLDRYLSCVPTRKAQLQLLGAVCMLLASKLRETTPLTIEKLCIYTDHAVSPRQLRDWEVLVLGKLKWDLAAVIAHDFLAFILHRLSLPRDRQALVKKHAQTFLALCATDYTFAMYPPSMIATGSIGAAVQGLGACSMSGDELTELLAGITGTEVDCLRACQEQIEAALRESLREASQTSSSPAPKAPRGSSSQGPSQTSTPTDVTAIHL
UniProt P53350: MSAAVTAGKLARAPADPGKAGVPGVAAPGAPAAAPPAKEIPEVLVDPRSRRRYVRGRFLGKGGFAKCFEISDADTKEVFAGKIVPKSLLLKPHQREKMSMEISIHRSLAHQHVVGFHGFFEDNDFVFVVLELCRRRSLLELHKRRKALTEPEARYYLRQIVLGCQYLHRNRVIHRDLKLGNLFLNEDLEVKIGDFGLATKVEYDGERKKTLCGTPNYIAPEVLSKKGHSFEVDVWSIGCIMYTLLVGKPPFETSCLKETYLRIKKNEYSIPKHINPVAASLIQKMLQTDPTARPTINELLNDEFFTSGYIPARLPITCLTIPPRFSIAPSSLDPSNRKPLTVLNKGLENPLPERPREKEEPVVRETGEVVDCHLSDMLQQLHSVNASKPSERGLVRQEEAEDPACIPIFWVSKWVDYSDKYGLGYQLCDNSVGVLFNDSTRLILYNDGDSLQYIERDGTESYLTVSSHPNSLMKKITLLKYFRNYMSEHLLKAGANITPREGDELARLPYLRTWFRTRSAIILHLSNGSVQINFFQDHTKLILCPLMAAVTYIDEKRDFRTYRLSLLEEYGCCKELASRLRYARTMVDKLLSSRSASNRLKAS

Tests used:
[1] = molecular target: PRMT5 (yeast two-hybrid fusion) (human) (UniProt O14744); test: two-hybrid
[2] = molecular target: CDK4 (NanoLuc-based LUMIER co-IP construct) (human) (UniProt P11802); test: co-IP
[3] = molecular target: PRMT5^null (G367A/R368A) with a split Venus-EYFP fragment (human) (UniProt O14744); test: split reporter
[4] = molecular target: T1, CDK4 (NanoLuc-based LUMIER co-IP construct) (human), P11802; test: co-IP; details: remark: other sources report otherwise
T1 chain: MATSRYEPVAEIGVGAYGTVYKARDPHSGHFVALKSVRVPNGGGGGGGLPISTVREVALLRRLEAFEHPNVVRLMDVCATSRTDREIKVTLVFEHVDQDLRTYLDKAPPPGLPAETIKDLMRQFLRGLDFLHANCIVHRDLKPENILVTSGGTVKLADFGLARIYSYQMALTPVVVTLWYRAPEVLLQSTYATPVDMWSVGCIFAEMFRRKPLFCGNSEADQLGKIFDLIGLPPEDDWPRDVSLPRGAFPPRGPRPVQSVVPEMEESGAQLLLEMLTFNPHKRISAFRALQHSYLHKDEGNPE

Molecule: AURKB (yeast two-hybrid fusion) (from UniProt Q96GD4 1-344) (enzyme)
binding [1]: binds

Molecule: CCND3 (NanoLuc-based LUMIER co-IP construct) (from UniProt P30281 1-292)
binding [2]: binds

B1: CDKN2B, P42772 1-138 (protein)
chain: MREENKGMPSGGGSDEGLASAAARGLVEKVRQLLEAGADPNGVNRFGRRAIQVMMMGSARVAELLLLHGAEPNCADPATLTRPVHDAAREGFLDTLVVLHRAGARLDVRDAWGRLPVDLAEERGHRDVAGYLRTATGD
binding [4]: binds

Continued, values first:

binding [1]: binds
Molecule: PLK1 (yeast two-hybrid fusion) (from UniProt P53350 1-603) (enzyme)

binding [3]: binds
Molecule: PRMT5^null (G367A/R368A) with a split Venus-EYFP fragment (from UniProt O14744 1-637) (enzyme)
